Measured values: paper doi:10.1101/2025.04.09.647920
No constants are given. Whether binding was seen depends on the method and setting. Binding seen in cells or lysates may run through a third protein. A yes stands for co-enrichment or nearness to the bait. Other partners may have been found. Where a sequence is shown, tags or fusion partners need not be part of it.

Sequences of proteins named here, by UniProt entry; tags and fusion partners are left off.
UniProt Q42479: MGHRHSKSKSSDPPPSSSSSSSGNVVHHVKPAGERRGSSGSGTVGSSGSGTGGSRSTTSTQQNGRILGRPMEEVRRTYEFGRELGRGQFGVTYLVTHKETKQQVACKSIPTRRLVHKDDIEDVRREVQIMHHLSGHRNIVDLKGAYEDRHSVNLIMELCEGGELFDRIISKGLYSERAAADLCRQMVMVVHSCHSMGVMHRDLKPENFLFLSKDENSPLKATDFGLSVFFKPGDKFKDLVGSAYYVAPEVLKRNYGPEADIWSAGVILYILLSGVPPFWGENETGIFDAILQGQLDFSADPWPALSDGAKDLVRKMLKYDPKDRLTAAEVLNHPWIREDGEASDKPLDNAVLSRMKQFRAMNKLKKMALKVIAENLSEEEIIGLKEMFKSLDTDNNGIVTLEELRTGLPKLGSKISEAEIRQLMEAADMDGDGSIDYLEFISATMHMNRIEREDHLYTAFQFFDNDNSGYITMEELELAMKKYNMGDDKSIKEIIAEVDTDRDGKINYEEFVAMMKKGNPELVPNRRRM

Target: T1, SUPPRESSOR OF NPR1-1, CONSTITUTIVE 1 (SNC1)-Myc (Arabidopsis thaliana) (UniProt O23530)
T1 sequence: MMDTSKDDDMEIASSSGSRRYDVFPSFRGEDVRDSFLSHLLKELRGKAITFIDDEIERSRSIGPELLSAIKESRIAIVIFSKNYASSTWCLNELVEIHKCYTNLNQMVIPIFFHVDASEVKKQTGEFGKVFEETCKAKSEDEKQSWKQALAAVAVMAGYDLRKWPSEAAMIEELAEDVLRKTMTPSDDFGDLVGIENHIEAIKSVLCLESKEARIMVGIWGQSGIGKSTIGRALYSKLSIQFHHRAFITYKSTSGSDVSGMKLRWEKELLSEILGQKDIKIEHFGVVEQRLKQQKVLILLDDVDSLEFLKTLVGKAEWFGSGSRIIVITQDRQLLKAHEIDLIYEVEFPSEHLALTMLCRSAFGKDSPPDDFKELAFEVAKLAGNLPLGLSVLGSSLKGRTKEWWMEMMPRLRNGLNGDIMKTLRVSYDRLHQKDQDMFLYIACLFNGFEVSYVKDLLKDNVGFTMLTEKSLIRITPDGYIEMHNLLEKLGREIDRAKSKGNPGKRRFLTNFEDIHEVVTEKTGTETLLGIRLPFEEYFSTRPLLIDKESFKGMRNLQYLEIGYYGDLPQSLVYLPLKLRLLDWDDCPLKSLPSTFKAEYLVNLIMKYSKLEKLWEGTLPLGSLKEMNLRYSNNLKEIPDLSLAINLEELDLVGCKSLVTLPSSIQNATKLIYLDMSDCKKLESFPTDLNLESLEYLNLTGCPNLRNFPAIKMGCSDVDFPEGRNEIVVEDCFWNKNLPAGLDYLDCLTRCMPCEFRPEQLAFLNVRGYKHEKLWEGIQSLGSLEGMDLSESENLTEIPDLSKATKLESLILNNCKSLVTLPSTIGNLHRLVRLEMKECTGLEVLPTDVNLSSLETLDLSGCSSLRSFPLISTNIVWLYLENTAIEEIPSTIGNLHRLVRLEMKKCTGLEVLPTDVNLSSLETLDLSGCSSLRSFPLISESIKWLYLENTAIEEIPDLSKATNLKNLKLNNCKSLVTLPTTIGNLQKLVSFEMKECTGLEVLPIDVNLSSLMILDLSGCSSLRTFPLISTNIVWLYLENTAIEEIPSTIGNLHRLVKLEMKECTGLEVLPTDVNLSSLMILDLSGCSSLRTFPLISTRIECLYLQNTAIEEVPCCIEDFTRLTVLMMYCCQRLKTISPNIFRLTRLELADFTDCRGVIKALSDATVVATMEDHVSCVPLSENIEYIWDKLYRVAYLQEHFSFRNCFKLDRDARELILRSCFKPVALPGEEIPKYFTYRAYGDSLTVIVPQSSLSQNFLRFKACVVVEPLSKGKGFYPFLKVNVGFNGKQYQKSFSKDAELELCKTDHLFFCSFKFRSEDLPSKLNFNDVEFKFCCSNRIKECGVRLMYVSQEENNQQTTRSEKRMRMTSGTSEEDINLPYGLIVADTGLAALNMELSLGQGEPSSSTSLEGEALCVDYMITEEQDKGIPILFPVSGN
Experiment: affinity purification with mass spectrometry

Ca2+-dependent protein kinase 3 (CPK3), endogenous (from UniProt Q42479 1-529) (enzyme)
binding: binds
